Values from PubChem BioAssay AID1159578 (Peter MacCallum Cancer Centre, 2015).

Purpose: 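siRNA pools altering how lymphatic endothelial cells close a scratch wound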 (primary screen)
Cells: human lymphatic endothelial cells
Knock-down reagent: siRNA pool against human genes, 40 nM
Time to read-out: 48 h after transfection
Detection: 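High-content imaging of dye-stained cells in a scratch assay measures filled wound area and nuclei per well; duplicate means given as ratio to mock and robust z-score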
Scale: migration robust z-score: higher = faster migration into the scratch; nuclei per well: higher = more cells in the well
Call rule: 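Migration changed when robust z exceeds 2 or falls below -2 and mean nuclei number is at least 3300; otherwise not called changed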
Meaning of the calls: active = migration changed; inactive = no migration change, or too few cells
Here is one part, drawn at random, of about 18,000 deposited reagents. In the full data, about 1,030 (5.7%) are marked active. 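Inactive calls also include pools with fewer than 3300 nuclei, whose migration was not assessed.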 The raw values are shown without normalisation. Unmarked entries are inactive. Further read-outs or replicates are left out here.

Silencing of CAPN9 (calpain 9) gave: migration robust z-score 0.26; nuclei per well, duplicate mean 5008.
POM121L12 (POM121 transmembrane nucleoporin like 12) gave migration robust z-score -1.66; nuclei per well, duplicate mean 6072.
ITGA10 (integrin subunit alpha 10) showed migration robust z-score 0.04; nuclei per well, duplicate mean 5542.
For PAQR7 (progestin and adipoQ receptor family member 7) the deposit lists migration robust z-score -0.81; nuclei per well, duplicate mean 5316.
Knock-down of CCL19 (C-C motif chemokine ligand 19) came out at: migration robust z-score -0.06; nuclei per well, duplicate mean 5628.
Depletion of MSANTD1 (Myb/SANT DNA binding domain containing 1) gave: migration robust z-score 0.46; nuclei per well, duplicate mean 6345.
For SNCG (synuclein gamma), the values are migration robust z-score 0.4; nuclei per well, duplicate mean 6524.
With knock-down of ZNF2 (zinc finger protein 2) the results were migration robust z-score 0.21; nuclei per well, duplicate mean 7026.
Against AK1 (adenylate kinase 1), the values are migration robust z-score 0.05; nuclei per well, duplicate mean 4600.

Quoted from the entries so far, 2 entries:
ZNF2 (zinc finger protein 2) | migration robust z-score: 0.21; nuclei per well, duplicate mean: 7026
AK1 (adenylate kinase 1) | migration robust z-score: 0.05; nuclei per well, duplicate mean: 4600

Further records follow.
With knock-down of TMEM171 (transmembrane protein 171), the record shows migration robust z-score 0.24; nuclei per well, duplicate mean 5865.
With knock-down of BLOC1S2 (biogenesis of lysosomal organelles complex 1 subunit 2), the record shows migration robust z-score -0.88; nuclei per well, duplicate mean 5956.
ERI2 (ERI1 exoribonuclease family member 2) scored migration robust z-score -0.05; nuclei per well, duplicate mean 5517.
Against FYTTD1 (forty-two-three domain containing 1), the entry reads migration robust z-score 1.04; nuclei per well, duplicate mean 5938.
With knock-down of CHCHD10 (coiled-coil-helix-coiled-coil-helix domain containing 10), the screen gave migration robust z-score 0.26; nuclei per well, duplicate mean 5144.
Depletion of OR10A7 (olfactory receptor family 10 subfamily A member 7) resulted in: migration robust z-score -0.29; nuclei per well, duplicate mean 6069.
Against POC1A (POC1 centriolar protein A) the deposit lists migration robust z-score 0.03; nuclei per well, duplicate mean 5927.
Depletion of TERB2 (telomere repeat binding bouquet formation protein 2) came out at: migration robust z-score -0.35; nuclei per well, duplicate mean 5546.
GPR137B (G protein-coupled receptor 137B) showed migration robust z-score -0.26; nuclei per well, duplicate mean 4982.
With knock-down of SIRPB1 (signal regulatory protein beta 1), the record shows migration robust z-score -1.85; nuclei per well, duplicate mean 3840.
GBX2 (gastrulation brain homeobox 2) gave migration robust z-score -0.21; nuclei per well, duplicate mean 6188.
After knock-down of DAPL1 (death associated protein like 1) the results were migration robust z-score 0.69; nuclei per well, duplicate mean 6094.
